Results: the supplement of paper PMC10849652
The list shows a part of the results.

Protein sequences, listed by entry. Tags and fused reporters are not part of them. Lines headed by an entry give the natural chain unless they say otherwise; changes in a name come on top.
UniProt Q9NXW9: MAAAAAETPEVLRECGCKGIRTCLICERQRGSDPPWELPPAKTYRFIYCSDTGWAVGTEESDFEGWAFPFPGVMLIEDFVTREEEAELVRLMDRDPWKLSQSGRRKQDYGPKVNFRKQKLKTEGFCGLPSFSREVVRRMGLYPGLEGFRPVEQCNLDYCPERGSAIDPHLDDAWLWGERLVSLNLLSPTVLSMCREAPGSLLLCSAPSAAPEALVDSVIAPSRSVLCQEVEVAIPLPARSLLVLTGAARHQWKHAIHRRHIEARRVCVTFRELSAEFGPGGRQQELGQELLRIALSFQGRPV
UniProt P51649: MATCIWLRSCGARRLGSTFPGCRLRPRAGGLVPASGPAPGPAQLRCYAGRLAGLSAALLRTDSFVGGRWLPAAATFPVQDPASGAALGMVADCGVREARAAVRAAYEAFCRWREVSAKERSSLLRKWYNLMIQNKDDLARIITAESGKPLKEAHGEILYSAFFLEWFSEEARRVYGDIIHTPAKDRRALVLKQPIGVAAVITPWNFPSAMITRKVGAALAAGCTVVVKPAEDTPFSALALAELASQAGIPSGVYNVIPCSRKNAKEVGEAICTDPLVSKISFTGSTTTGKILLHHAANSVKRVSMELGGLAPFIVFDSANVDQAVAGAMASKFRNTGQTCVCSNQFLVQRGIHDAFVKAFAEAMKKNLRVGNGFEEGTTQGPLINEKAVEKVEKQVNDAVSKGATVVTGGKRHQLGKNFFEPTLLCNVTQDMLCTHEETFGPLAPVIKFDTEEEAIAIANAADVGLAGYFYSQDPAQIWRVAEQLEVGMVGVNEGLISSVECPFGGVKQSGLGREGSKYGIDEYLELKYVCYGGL
UniProt P23526: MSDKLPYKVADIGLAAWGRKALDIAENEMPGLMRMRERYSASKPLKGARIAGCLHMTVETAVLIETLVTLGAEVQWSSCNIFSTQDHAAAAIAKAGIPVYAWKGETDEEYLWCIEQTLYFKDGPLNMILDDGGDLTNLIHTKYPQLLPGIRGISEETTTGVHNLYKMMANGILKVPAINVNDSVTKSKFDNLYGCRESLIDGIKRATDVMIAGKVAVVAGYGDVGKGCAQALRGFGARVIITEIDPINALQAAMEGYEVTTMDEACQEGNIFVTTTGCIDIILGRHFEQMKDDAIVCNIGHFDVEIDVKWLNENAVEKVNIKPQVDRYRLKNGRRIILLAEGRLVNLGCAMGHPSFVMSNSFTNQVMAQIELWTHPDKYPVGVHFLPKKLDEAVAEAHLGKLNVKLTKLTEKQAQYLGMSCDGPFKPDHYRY
UniProt O00116: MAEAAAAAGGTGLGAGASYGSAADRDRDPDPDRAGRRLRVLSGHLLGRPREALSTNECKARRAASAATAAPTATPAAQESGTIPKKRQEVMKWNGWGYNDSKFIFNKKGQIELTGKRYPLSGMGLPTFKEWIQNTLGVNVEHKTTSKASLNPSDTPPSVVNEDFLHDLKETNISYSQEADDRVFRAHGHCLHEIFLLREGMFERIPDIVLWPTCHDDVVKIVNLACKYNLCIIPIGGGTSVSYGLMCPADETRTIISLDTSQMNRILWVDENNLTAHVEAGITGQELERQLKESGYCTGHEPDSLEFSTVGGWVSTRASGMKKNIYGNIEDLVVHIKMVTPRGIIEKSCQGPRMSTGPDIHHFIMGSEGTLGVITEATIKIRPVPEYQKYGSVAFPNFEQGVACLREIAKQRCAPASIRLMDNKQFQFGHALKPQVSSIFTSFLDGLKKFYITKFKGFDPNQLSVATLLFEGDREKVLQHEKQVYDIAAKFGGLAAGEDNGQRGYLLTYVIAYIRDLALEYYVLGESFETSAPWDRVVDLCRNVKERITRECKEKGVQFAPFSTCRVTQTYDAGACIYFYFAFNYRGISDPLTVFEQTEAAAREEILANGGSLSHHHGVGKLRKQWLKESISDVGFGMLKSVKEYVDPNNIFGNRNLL
UniProt P00352: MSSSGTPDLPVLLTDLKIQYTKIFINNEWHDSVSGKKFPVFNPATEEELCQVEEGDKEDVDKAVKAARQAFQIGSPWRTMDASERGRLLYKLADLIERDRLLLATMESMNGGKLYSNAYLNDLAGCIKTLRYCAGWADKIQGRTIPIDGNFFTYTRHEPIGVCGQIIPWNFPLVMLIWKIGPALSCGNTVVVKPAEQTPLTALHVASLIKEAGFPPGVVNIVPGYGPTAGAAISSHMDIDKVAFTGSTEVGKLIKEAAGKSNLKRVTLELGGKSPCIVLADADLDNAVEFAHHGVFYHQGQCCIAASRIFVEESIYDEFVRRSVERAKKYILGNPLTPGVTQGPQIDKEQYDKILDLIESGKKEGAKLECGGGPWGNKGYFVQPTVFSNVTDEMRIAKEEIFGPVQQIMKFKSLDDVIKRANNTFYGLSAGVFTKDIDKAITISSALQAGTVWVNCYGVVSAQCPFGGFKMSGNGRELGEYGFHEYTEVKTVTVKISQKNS
UniProt P31751: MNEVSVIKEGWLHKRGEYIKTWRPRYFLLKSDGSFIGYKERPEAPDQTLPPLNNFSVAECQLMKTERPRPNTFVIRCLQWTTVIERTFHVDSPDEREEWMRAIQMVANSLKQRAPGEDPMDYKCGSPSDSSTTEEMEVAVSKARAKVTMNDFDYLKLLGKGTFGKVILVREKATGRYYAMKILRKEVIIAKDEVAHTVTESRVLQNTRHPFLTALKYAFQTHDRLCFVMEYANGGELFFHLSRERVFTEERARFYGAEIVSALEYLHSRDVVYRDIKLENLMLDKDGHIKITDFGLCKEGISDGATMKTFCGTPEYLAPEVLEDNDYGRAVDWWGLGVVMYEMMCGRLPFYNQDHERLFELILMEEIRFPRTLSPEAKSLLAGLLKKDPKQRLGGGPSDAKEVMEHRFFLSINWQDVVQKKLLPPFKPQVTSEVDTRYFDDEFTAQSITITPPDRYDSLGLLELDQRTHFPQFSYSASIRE
UniProt O95433, whole entry, looked up: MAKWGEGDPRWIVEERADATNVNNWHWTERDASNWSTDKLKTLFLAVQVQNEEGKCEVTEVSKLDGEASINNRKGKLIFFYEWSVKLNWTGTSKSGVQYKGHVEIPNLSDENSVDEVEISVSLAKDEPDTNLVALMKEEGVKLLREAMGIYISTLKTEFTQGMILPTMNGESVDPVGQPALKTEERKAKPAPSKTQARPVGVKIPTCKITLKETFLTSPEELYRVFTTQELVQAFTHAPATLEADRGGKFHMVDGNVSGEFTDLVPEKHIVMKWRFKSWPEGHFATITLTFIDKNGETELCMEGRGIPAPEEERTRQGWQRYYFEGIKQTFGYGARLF
UniProt Q9NRZ7: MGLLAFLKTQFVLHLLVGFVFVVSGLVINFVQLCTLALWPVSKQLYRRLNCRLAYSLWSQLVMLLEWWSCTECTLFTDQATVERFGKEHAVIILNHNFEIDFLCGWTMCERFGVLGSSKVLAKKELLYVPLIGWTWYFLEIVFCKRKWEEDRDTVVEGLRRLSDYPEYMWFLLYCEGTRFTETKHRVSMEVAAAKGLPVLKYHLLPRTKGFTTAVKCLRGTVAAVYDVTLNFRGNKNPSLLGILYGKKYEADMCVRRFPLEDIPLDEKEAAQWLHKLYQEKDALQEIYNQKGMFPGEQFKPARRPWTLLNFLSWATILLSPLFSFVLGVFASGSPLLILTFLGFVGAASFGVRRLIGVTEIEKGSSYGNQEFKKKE
UniProt Q96Q83: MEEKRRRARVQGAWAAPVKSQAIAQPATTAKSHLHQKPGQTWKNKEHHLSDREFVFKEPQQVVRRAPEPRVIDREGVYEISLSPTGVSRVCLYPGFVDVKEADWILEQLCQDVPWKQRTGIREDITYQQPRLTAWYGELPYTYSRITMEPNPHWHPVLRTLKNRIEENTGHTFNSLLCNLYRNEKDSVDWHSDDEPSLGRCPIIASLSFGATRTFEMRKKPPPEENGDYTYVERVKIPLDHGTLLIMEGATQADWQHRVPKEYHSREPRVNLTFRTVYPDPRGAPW
UniProt Q9BRR6: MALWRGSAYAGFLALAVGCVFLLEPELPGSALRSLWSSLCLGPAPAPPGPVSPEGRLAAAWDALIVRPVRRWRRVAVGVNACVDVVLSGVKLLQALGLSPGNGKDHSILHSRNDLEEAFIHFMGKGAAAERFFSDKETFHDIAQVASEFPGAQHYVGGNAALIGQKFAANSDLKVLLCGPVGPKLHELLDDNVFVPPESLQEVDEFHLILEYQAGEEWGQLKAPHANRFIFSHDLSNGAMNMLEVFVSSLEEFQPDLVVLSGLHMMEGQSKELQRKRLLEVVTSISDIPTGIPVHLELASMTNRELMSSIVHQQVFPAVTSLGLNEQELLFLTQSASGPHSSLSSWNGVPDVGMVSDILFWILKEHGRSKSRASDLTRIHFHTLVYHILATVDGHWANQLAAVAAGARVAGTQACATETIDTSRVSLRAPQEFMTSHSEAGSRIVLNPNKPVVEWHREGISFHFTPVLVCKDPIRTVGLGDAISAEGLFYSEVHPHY
UniProt Q96F25: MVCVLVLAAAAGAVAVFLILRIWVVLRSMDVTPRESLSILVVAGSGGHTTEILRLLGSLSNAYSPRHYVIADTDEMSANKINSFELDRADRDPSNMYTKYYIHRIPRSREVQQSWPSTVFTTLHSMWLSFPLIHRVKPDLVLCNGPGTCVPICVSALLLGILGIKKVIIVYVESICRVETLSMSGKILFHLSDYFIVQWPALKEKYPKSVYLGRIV
UniProt P27144: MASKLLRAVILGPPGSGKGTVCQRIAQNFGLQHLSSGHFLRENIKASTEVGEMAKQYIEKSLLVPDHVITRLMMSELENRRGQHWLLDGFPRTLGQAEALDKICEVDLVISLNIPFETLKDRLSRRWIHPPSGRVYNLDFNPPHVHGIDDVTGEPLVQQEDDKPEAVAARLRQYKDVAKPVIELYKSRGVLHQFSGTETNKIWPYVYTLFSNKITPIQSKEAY
UniProt P11766: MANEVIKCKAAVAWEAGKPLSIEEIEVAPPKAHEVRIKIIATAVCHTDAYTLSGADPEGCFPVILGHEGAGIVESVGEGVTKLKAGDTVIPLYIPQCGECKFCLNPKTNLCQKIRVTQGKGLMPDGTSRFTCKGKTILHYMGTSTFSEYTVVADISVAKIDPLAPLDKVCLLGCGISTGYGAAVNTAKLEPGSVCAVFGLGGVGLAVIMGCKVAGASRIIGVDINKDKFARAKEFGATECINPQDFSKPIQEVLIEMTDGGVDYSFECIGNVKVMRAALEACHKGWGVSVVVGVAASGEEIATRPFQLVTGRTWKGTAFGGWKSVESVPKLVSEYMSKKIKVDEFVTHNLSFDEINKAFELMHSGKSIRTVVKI
UniProt Q12904: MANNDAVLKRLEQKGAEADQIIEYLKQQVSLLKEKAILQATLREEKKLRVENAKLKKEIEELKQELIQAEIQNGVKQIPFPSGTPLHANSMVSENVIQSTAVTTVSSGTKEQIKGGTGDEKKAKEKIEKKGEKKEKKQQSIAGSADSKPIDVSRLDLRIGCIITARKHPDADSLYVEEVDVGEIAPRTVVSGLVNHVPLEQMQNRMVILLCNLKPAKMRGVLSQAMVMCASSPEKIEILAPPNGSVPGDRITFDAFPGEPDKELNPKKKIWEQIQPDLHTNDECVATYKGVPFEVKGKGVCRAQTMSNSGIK
UniProt P04075: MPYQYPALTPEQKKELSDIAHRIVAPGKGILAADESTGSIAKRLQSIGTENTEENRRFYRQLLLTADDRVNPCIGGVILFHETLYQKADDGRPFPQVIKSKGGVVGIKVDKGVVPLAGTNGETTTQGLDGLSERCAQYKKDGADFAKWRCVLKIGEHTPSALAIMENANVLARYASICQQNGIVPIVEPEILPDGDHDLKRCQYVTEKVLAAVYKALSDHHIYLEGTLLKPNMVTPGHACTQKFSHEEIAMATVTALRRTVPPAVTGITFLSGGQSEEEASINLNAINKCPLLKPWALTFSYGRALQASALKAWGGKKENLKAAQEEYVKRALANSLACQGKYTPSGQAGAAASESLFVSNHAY
UniProt Q9H6U8: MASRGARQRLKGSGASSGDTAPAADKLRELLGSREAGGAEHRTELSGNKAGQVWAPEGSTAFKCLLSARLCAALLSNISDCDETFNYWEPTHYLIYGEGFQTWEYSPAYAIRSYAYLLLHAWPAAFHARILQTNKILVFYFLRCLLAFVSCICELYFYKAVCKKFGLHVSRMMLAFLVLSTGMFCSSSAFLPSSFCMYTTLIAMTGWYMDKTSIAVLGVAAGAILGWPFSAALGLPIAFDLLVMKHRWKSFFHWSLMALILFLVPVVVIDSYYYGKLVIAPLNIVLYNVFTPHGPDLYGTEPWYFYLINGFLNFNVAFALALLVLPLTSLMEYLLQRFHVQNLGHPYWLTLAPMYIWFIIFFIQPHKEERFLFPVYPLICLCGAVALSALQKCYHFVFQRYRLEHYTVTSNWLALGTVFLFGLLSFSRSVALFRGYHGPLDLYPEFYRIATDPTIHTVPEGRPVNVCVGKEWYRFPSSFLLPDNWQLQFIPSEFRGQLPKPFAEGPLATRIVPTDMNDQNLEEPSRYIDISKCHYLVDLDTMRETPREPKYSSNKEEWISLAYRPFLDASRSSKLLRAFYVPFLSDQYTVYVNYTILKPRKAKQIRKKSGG

Each target was assayed with C1CN(CCC1(CC2=CC=C(C=C2)Cl)N)C3=NC=NC4=C3C=CN4 (assay: log2 fold change, soluble protein after heating vs DMSO (PISA); higher = thermal stabilisation; K562 cells, 10 uM, 30 min; active = over 0.2 and 3.5 SD of the protein, either way, in both replicates (recomputed)).
Method in brief: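 Quantification of soluble protein used TMTpro 16plex LC-MS/MS, with channel sums equalised. Samples were the supernatant after 21,000xg for 90 min of pooled aliquots from K562 cells (2×10^6 cells/mL) treated with 10 μM compound for 30 min, heated for 3 min over 48°C-58°C, and extracted in PBS with 0.5% NP-40 at 4°C. Values, from duplicates, describe thermal stability against control samples on a log2 fold-change scale.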

log2 fold change, inactive:
ALKBH4 (UniProt Q9NXW9) 0.091
AMD1 (UniProt P17707) 0.025
AFDN isoform 5 (UniProt P55196) 0.038
ALDH5A1 isoform 2 (UniProt P51649) 0.046
ADK (UniProt P55263) 0.085
AHCYL1 (UniProt O43865) 0.104
AHCY (UniProt P23526) 0.059
AGPS (UniProt O00116) 0.077
ALDH1A1 (UniProt P00352) 0.036
AKT2 (UniProt P31751) 0.144
AHSA1 (UniProt O95433) 0.023
ALDH2 (UniProt P05091) 0.02
AGPAT3 isoform 3 (UniProt Q9NRZ7) 0.067
AK2 isoform 2 (UniProt P54819) 0.042
ALKBH3 (UniProt Q96Q83) 0.01
ADPGK (UniProt Q9BRR6) 0.052
ALDH1B1 (UniProt P30837) 0.043
AIDA (UniProt Q96BJ3) 0.069
AHCTF1 isoform 2 (UniProt Q8WYP5) 0.056
ALG14 (UniProt Q96F25) 0.014
AK4 (UniProt P27144) 0.029
AIMP2 (UniProt Q13155) -0.259
ALG13 (UniProt Q9NP73) -0.032
AKR1A1 (UniProt P14550) 0.038
AIFM2 (UniProt Q9BRQ8) 0.064
AKR1B1 (UniProt P15121) 0.044
ADO (UniProt Q96SZ5) 0.061
ADH5 (UniProt P11766) 0.037
AIMP1 isoform 2 (UniProt Q12904) -0.127
ALDOA isoform 2 (UniProt P04075) 0.049
ADPRHL2 (UniProt Q9NX46) -0.165
ALG9 isoform 3 (UniProt Q9H6U8) 0.002

At a glance, some entries already given:
log2 fold change, inactive:
AK4 (UniProt P27144) 0.029
AIMP2 (UniProt Q13155) -0.259
